Results deposited as PubChem BioAssay AID1259254 (NCATS, 2017).
Here is one part, drawn at random, of about 59,000 reagents tested. Of all reagents, about 1,550 (2.6%) got an active call. 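G2 share is only a proxy for re-replication; each gene was hit by three separate siRNAs, and active genes were retested.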 Entries without a mark were called inactive. Further read-outs or replicates are left out here. The record does not give: the amount of reagent.

Aim: 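Genome-wide screen for genes that prevent DNA re-replication in cancer cells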 (primary screen)
Cells: human HCT116 colorectal cancer cells
Reagent: single siRNA against human genes
Time to read-out: 3 days
Measured: 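Nuclei stained with Hoechst and imaged; cell-cycle phase assigned by DNA content; G2 share scaled per plate, non-targeting siRNA 0%, GMNN siRNA 100%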
Reading the numbers: G2 robust z-score and G2 cells, % of GMNN control: higher = more G2 cells, more excess DNA replication
Active means: 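Active siRNAs have a G2 robust z of 5 or more median absolute deviations over the median, which in these data means about 38% or higher of GMNN control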

no.	target gene	PubChem SID	G2 robust z-score	G2 cells, % of GMNN control
1	ZNF66	SID160719090	-0.608	-1.31
2	ZNF66	SID160719091	2.44	20.2
3	ZNF66	SID160719092	0.493	6.44
4	CHRNA5	SID160743279	0.151	4.03
5	CHRNA5	SID160743291	-0.284	0.971
6	CHRNA5	SID160743301	-0.659	-1.67
7	LYPD3	SID160738330	0.97	9.79
8	LYPD3	SID160738331	0.33	5.29
9	LYPD3	SID160738332	-0.687	-1.87
10	HTR7	SID160775474	0.877	9.14
11	HTR7	SID160775475	-1.13	-4.97
12	HTR7	SID160775476	-0.334	0.614
13	PPP1R3F	SID160753438	-0.498	-0.535
14	PPP1R3F	SID160753439	3.99	31
15	PPP1R3F	SID160753440	2.45	20.2
16	ARHGEF16	SID160732903	5.77 (active)	43.6
17	ARHGEF16	SID160738572	0.0921	3.62
18	ARHGEF16	SID160738574	-0.631	-1.47
19	NUP54	SID160741420	-0.0956	2.29
20	NUP54	SID160741421	2.46	20.3
21	NUP54	SID160741422	-1.05	-4.43
22	RIN1	SID160722610	0.08	3.53
23	RIN1	SID160722611	-0.503	-0.569
24	RIN1	SID160732210	0.289	5
25	FAM149A	SID160737129	-1.04	-4.36
26	FAM149A	SID160737131	-0.354	0.479
27	FAM149A	SID160737132	-0.0291	2.76
28	VASH1	SID160731958	-0.64	-1.54
29	VASH1	SID160731966	2.51	20.6
30	VASH1	SID160731976	4.8	36.7
31	CD300LD-AS1	SID160758402	-0.901	-3.37
32	CD300LD-AS1	SID160758403	1.09	10.6
33	CD300LD-AS1	SID160758404	-0.664	-1.71
34	MGMT	SID160731230	-1.2	-5.45
35	MGMT	SID160777223	-0.725	-2.13
36	MGMT	SID160777224	-0.283	0.977
37	ACTL7A	SID160729412	-0.6	-1.25
38	ACTL7A	SID160729414	-1.19	-5.4
39	ACTL7A	SID160729415	-0.914	-3.46
40	RNF34	SID160750186	-1.07	-4.56
41	RNF34	SID160750187	-0.658	-1.66
42	RNF34	SID160750188	-0.722	-2.11
43	CALB2	SID160731920	0.652	7.55
44	CALB2	SID160735680	-0.104	2.24
45	CALB2	SID160735691	-0.7	-1.96
46	EIF4E2	SID160722289	0.711	7.97
47	EIF4E2	SID160722291	-1.06	-4.46
48	EIF4E2	SID160722292	-0.602	-1.27
49	LPO	SID160776707	-1.35	-6.5
50	LPO	SID160776708	-0.817	-2.78
51	LPO	SID160776709	-0.55	-0.904
52	CFAP90	SID160757301	0.394	5.74
53	CFAP90	SID160757302	-0.355	0.471
54	CFAP90	SID160757303	1.68	14.8
55	RPS2P50	SID160773210	-0.934	-3.6
56	RPS2P50	SID160773211	2.44	20.1
57	RPS2P50	SID160773212	0.149	4.01
58	DOHH	SID160724593	-0.957	-3.77
59	DOHH	SID160724594	0.178	4.22
60	DOHH	SID160724595	-0.726	-2.14
61	EDIL3	SID160725187	2.98	23.9
62	EDIL3	SID160725193	-0.0611	2.54
63	EDIL3	SID160730402	0.212	4.46
64	ICAM2	SID160775500	0.0234	3.13
65	ICAM2	SID160775502	0.824	8.76
66	ICAM2	SID160775503	-0.589	-1.18
67	TRIM52	SID160752786	2.58	21.1
68	TRIM52	SID160752787	0.213	4.47
69	TRIM52	SID160752788	0.354	5.46

4 neighbouring entries from above, quoted:
no.	target gene	PubChem SID	G2 robust z-score	G2 cells, % of GMNN control
47	EIF4E2	SID160722291	-1.06	-4.46
48	EIF4E2	SID160722292	-0.602	-1.27
49	LPO	SID160776707	-1.35	-6.5
50	LPO	SID160776708	-0.817	-2.78
